Literature values in patent US9987231B2, “Compositions and methods for delivery of omeprazole plus acetylsalicylic acid” (POZEN INC., priority 2011, dated 2018).

Settings: 20° C.

Solubility in water: 0.2 g/100 ml H2O
SMILES: O=C(O)c1ccccc1O [Salicylic acid, 2-hydroxybenzenecarboxylic acid]
